The results in this text go back to patent publication US20250332199A1.

Protein sequences, listed by entry. Tags and fused reporters are not part of them. Residues count along the entry.
UniProt Q96RJ3, residues 1-71: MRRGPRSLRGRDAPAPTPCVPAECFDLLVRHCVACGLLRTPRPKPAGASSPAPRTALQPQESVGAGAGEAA

Results are given in words; binding and its absence hold for the method and conditions named. Some entries that bind do so weakly or less than the wild type.

This assay has as its target BAFF-R-CAR. Put plainly: flow cytometry of Zip-sorted T cells; by paragraph 330 staining with 1 ug hBAFF-R hFc followed by anti-hFc antibody.

Consider “hBAFF-R hFc (from UniProt Q96RJ3) (Fc fusion)”, for which the binding result is listed as “binds”.
